Measured values reported in the supplement of paper PMC10849652.
Some of the results follow.

The chains behind the UniProt entries cited, without tags or fusion partners. Where a name states a change or a piece, a line headed by the entry shows the natural chain unless it says otherwise.
UniProt Q99741: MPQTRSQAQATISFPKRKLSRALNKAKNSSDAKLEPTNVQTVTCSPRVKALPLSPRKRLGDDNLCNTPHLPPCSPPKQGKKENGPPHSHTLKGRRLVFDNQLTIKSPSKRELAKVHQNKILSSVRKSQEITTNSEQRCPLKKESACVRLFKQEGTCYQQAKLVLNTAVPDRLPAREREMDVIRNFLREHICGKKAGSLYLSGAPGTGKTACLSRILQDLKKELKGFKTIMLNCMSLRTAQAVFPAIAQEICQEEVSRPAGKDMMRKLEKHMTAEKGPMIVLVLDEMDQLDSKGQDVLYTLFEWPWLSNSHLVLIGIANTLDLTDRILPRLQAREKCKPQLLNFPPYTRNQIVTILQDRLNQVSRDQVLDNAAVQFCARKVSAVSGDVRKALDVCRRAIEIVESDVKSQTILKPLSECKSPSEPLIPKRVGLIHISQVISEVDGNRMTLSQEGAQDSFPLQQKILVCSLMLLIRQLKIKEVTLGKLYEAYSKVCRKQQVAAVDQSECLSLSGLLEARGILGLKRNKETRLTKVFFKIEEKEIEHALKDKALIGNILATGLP
UniProt Q9BU64: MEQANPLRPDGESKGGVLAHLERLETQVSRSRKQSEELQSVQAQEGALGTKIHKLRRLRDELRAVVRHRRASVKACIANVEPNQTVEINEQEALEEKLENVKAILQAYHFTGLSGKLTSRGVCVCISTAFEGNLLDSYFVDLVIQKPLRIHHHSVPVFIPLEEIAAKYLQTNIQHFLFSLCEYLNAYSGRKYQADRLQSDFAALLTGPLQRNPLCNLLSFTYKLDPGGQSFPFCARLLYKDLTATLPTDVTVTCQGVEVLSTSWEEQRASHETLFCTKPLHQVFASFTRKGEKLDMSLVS
UniProt A8MT69: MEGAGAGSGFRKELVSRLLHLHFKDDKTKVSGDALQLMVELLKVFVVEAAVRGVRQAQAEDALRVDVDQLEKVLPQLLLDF
UniProt Q9UIB8: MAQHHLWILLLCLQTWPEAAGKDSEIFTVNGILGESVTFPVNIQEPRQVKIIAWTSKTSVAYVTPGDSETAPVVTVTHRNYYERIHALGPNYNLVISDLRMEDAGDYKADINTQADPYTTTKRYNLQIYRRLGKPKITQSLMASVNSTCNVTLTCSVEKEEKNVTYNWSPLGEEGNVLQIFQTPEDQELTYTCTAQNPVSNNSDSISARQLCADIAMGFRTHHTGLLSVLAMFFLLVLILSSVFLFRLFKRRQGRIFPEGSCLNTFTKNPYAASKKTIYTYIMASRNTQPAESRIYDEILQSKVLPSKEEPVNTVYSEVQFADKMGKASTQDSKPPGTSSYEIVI
UniProt Q7Z7K6: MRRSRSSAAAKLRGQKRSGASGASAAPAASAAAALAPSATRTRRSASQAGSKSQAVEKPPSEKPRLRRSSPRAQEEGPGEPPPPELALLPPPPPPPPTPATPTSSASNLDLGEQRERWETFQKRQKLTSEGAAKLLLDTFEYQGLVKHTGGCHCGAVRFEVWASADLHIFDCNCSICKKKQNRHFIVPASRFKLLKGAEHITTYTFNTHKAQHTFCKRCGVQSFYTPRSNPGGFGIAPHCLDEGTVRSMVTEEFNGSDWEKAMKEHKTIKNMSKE
UniProt Q9P2B7: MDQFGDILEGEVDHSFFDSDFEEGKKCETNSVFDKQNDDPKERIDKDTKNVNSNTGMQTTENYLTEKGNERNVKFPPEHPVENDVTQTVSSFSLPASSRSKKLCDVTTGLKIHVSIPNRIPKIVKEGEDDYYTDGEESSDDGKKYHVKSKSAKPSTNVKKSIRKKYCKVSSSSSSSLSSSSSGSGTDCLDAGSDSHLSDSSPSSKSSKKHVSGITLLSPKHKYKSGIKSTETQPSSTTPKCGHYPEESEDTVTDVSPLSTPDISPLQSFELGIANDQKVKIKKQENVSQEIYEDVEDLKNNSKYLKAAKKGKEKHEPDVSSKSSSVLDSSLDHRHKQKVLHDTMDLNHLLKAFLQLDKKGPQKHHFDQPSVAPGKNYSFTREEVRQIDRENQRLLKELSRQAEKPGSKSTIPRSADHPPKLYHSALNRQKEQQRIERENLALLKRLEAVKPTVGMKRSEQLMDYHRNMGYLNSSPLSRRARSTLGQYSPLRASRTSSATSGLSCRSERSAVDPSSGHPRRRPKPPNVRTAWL
UniProt Q9BXL8: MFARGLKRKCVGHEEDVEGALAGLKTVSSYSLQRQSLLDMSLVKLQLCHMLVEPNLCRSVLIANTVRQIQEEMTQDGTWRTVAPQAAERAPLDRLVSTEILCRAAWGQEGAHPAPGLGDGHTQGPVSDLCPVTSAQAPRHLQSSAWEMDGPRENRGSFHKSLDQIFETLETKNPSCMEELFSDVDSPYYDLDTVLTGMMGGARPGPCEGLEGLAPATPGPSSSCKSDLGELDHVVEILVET
UniProt Q9P209, whole entry, looked up: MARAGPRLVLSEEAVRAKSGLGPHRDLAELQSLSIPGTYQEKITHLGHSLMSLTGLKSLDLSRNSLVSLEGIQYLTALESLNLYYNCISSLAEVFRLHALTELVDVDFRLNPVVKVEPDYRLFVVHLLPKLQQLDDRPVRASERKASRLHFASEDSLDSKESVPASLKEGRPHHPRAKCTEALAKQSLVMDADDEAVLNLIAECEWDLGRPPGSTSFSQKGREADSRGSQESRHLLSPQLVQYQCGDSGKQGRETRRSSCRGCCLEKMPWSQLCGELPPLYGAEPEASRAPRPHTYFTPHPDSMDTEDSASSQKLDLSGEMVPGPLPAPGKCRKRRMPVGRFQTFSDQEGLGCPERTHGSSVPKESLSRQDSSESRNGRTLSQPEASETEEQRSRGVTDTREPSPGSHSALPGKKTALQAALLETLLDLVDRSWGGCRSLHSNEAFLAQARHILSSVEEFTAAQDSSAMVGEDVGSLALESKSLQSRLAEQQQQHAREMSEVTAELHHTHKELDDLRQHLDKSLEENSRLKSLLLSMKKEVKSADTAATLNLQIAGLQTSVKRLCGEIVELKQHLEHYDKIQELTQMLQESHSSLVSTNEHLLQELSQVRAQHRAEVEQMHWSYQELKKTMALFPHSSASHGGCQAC

Tests used:
Experiment in all cases: log2 fold change, soluble protein after heating vs DMSO (PISA); higher = thermal stabilisation; K562 lysate, 10 uM; active = over 0.2 and 3.5 SD of the protein, either way, in both replicates (recomputed)
crizotinib = compound: C[C@@H](Oc1cc(-c2cnn(C3CCNCC3)c2)cnc1N)c1c(Cl)ccc(F)c1Cl [crizotinib]
How it was run: (§1)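 To prepare the extract, K562 pellets were dounce-homogenised in PBS pH 7.4 with 1 mM MgCl2, giving crude material at 1 mg/mL protein. This was treated with 10 μM compound for 30 min, then heated in aliquots for 3 min over 48°C-58°C before pooling and addition of NP-40 to 0.5% at 4°C. Centrifugation at 21,000xg for 90 min left soluble protein in the supernatant, which TMTpro 16plex LC-MS/MS quantified with equalised channel sums. Results are log-two fold changes in thermal stability compared with solvent controls, from duplicates.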

duvelisib = compound: C[C@H](Nc1ncnc2nc[nH]c12)c1cc2cccc(Cl)c2c(=O)n1-c1ccccc1 [duvelisib]
How it was run: as §1

doramapimod = compound: Cc1ccc(-n2nc(C(C)(C)C)cc2NC(=O)Nc2ccc(OCCN3CCOCC3)c3ccccc23)cc1 [doramapimod]
How it was run: as §1

[1] = compound: C[C@H](C1=CC=C(C=C1)C(=O)NC2=C3C=CNC3=NC=C2)N
How it was run: as §1

gandotinib = compound: Cc1cc(Nc2cc(CN3CCOCC3)c3nc(C)c(Cc4ccc(Cl)cc4F)n3n2)n[nH]1 [gandotinib]
How it was run: as §1

[2] = compound: Cc1cccc(CC(=O)N2CCc3c2ccc(-c2cn(C)c4ncnc(N)c24)c3F)n1
How it was run: as §1

pictilisib = compound: CS(=O)(=O)N1CCN(Cc2cc3nc(-c4cccc5[nH]ncc45)nc(N4CCOCC4)c3s2)CC1 [pictilisib]
How it was run: as §1

bafetinib = compound: Cc1ccc(NC(=O)c2ccc(CN3CC[C@H](N(C)C)C3)c(C(F)(F)F)c2)cc1Nc1nccc(-c2cncnc2)n1 [bafetinib]
How it was run: as §1

tozasertib = compound: Cc1cc(Nc2cc(N3CCN(C)CC3)nc(Sc3ccc(NC(=O)C4CC4)cc3)n2)n[nH]1 [tozasertib]
How it was run: as §1

Measured: log2 fold change

CDC6 (UniProt Q99741)
inactive: crizotinib 0.053 | duvelisib -0.084 | doramapimod 0.239

CENPO (UniProt Q9BU64)
inactive: [1] -0.033 | gandotinib -0.392 | [2] 0.047

CENPX (UniProt A8MT69)
inactive: crizotinib 0.054 | doramapimod -0.082

CD84 (UniProt Q9UIB8)
inactive: pictilisib -0.034 | [1] 0.095 | gandotinib -0.01 | bafetinib 0.006 | [2] 0.012

CENPV (UniProt Q7Z7K6)
inactive: pictilisib 0.02 | crizotinib -0.119 | [1] 0.089 | gandotinib -0.193 | tozasertib 0.094 | doramapimod -0.149 | bafetinib -0.163 | [2] -0.36

CENPC (UniProt Q03188)
inactive: [1] 0.003 | duvelisib 0.035 | gandotinib -0.066 | tozasertib 0.007 | [2] 0.015

CFAP97 (UniProt Q9P2B7)
inactive: crizotinib 0.046 | [1] 0.192 | duvelisib -0.155 | gandotinib -0.422 | doramapimod 0.124 | [2] 0

2 records drawn at random from those above, as already listed:
CD84 (UniProt Q9UIB8)
inactive: pictilisib -0.034 | [1] 0.095 | gandotinib -0.01 | bafetinib 0.006 | [2] 0.012

CENPX (UniProt A8MT69)
inactive: crizotinib 0.054 | doramapimod -0.082

Next part.

CDCA4 (UniProt Q9BXL8)
inactive: duvelisib 0.031

CEP72 (UniProt Q9P209)
inactive: duvelisib 0.011
